Molecular target: LdcCA (Leishmania infantum, UniProt A4HSV2)
Assay: biochemical
Details: stopped flow CO2 hydrase assay, mean from three assays; read-out: KI LdCA

The chains behind the UniProt entries cited, without tags or fusion partners. Residues count along the entry.
UniProt A4HSV2, 1-306: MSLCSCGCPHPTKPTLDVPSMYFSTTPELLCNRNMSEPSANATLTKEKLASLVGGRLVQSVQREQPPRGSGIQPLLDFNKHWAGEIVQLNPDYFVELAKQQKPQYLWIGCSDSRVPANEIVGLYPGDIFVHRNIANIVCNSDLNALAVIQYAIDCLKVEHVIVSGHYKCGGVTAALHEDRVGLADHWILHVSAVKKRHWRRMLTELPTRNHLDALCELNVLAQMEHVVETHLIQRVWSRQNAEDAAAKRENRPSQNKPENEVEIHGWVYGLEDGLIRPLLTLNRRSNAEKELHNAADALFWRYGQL

`CC(=O)Nc1nnc(S(N)(=O)=O)s1` [AAZ, acetazolamide, reference compound] showed a Ki of 90 nM.
